Test results taken from article PMC10042849.
The structures given here were assigned with low confidence; some may be wrong.

By UniProt entry, the sequences of proteins in these tests, tags left out. Residues count along the entry.
UniProt Q8A0N4, 27-476 D312A/E314L limits assumed: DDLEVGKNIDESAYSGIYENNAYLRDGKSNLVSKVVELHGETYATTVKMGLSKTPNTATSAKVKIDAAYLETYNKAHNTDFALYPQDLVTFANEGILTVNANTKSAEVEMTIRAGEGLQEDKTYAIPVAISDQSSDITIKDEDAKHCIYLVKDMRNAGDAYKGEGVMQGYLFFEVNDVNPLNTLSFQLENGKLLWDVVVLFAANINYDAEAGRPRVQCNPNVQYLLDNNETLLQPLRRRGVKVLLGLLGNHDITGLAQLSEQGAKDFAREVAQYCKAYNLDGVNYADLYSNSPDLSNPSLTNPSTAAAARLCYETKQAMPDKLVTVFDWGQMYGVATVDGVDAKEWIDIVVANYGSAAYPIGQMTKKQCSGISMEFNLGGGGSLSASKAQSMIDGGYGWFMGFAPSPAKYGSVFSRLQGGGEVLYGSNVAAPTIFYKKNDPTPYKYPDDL

Biological target: EndoBT-3987 (Bacteroides thetaiotaomicron, UniProt Q8A0N4, D312A/E314L)
Assay: methyl-TROSY NMR titration, 2D line-shape fitting (TITAN), two-state model
Conditions: catalytically inactive mutant; 20 mM Tris-d11 pH* 7.50, 50 mM NaCl, D2O, 298 K; MILV-labelled protein

## CC(=O)N[C@@H]1[C@@H](O)[C@H](O[C@@H]2O[C@H](CO)[C@@H](O[C@@H]3O[C@H](CO[C@H]4O[C@H](CO[C@H]5O[C@H](CO)[C@@H](O)[C@H](O)[C@@H]5O[C@H]5O[C@H](CO)[C@@H](O)[C@H](O)[C@@H]5O)[C@@H](O)[C@H](O[C@H]5O[C@H](CO)[C@@H](O)[C@H](O)[C@@H]5O[C@H]5O[C@H](CO)[C@@H](O)[C@H](O)[C@@H]5O)[C@@H]4O)[C@@H](O)[C@H](O[C@H]4O[C@H](CO)[C@@H](O)[C@H](O)[C@@H]4O[C@H]4O[C@H](CO)[C@@H](O)[C@H](O)[C@@H]4O[C@H]4O[C@H](CO)[C@@H](O)[C@H](O)[C@@H]4O)[C@@H]3O)[C@H](O)[C@H]2NC(C)=O)[C@@H](CO)O[C@H]1NC(=O)C[C@H](N)C(=O)O
  Kd: 1700 nM
